Measurements from patent publication US5889148A, “Antibiotic peptides” (priority 1995, dated 1999).
Converted amounts (≈) assume the structure as drawn. Part of at least one peptide drawing is inferred or uncertain, most often the ends. Non-standard residues stand in square brackets, D forms with d. Residues, ends and D or L forms follow the SMILES beside them.

Assays:
[1] = tested on: Candida albicans (ATCC 36232); test: MIC test, antifungal activity; assay type: cell-based; settings: Table 11, enantiomer, retro-inverso, D-amino acid derivatives of M22
Procedure: (§1) Antibacterial and antifungal activities of the peptides were determined by employing MIC test as follows:
(§2) To determine antifungal activity, a test organism Candida albicans (ATCC 36232) was cultured on Sabouraud dextrose agar plate for 24 to 48 hrs, and colonies thus grown were suspended on Sabouraud dextrose medium(Gibco, USA) to have O.D.530 =0.5(3×10^6 cells) and further diluted with 100-fold to have O.D.530 =0.005(3×10^4 cells). 100 μl of Candida albicans culture thus prepared was pipetted on 96-well microplates which had already contained 100 μl of a serially diluted peptide solution.

[2] = tested on: Staphylococcus aureus (ATCC 6538); test: MIC test, antibacterial activity; assay type: cell-based; settings: Table 11, enantiomer, retro-inverso, D-amino acid derivatives of M22
Procedure: as §1, §2
Antibacterial activity of peptide was determined analogously as above, with an exception that Staphylococcus aureus (ATCC 6538) selected as a test organism was cultured on M-3 medium(Gibco, USA) at 37° C. and cell number was adjusted to 2×10^8 cells before 100-fold dilution.

| Compound | MIC C. albicans [1] [µg/mL] | MIC S. aureus [2] [µg/mL] |
| --- | --- | --- |
| CC[C@H](C)[C@H](NC(=O)[C@H](Cc1ccc(O)cc1)NC(=O)[C@H](CCCCN)NC(=O)[C@H](N)CCCCN)C(=O)N[C@@H](CCCCN)C(=O)N[C@@H](CCCCN)C(=O)N[C@H](C(=O)N[C@@H](Cc1ccccc1)C(=O)N[C@H](C(=O)N[C@H](Cc1ccccc1)C(=O)N[C@H](CCCCN)C(N)=O)C(C)C)C(C)C [M22-10, kKYIKKVFVfk--NH2] (H-[dK]KYIKKVFV[dF][dK]-NH2) | 3.15 (≈ 2.21 µM) | 3.17 (≈ 2.22 µM) |
| CC[C@H](C)[C@H](NC(=O)[C@H](Cc1ccc(O)cc1)NC(=O)[C@@H](CCCCN)NC(=O)[C@H](N)CCCCN)C(=O)N[C@@H](CCCCN)C(=O)N[C@@H](CCCCN)C(=O)N[C@H](C(=O)N[C@@H](Cc1ccccc1)C(=O)N[C@H](C(=O)N[C@H](Cc1ccccc1)C(=O)N[C@H](CCCCN)C(N)=O)C(C)C)C(C)C [M22-11, kkYIKKVFVfk--NH2] (H-[dK][dK]YIKKVFV[dF][dK]-NH2) | 3.14 (≈ 2.2 µM) | 3.16 (≈ 2.21 µM) |
| CC[C@H](C)[C@H](NC(=O)[C@@H](Cc1ccc(O)cc1)NC(=O)[C@@H](CCCCN)NC(=O)[C@H](N)CCCCN)C(=O)N[C@@H](CCCCN)C(=O)N[C@@H](CCCCN)C(=O)N[C@H](C(=O)N[C@@H](Cc1ccccc1)C(=O)N[C@H](C(=O)N[C@H](Cc1ccccc1)C(=O)N[C@H](CCCCN)C(N)=O)C(C)C)C(C)C [M22-12, kkyIKKVFVfk--NH2] (H-[dK][dK][dY]IKKVFV[dF][dK]-NH2) | 3.15 (≈ 2.21 µM) | 3.15 (≈ 2.21 µM) |
| CC[C@H](C)[C@H](NC(=O)[C@H](Cc1ccc(O)cc1)NC(=O)[C@H](CCCCN)NC(=O)[C@H](N)CCCCN)C(=O)N[C@@H](CCCCN)C(=O)N[C@@H](CCCCN)C(=O)N[C@H](C(=O)N[C@@H](Cc1ccccc1)C(=O)N[C@@H](C(=O)N[C@H](Cc1ccccc1)C(=O)N[C@H](CCCCN)C(N)=O)C(C)C)C(C)C [M22-13, kKYIKKVFvfk--NH2] (H-[dK]KYIKKVF[dV][dF][dK]-NH2) | 3.15 (≈ 2.21 µM) | 3.18 (≈ 2.23 µM) |
| CC[C@H](C)[C@H](NC(=O)[C@H](Cc1ccc(O)cc1)NC(=O)[C@@H](CCCCN)NC(=O)[C@H](N)CCCCN)C(=O)N[C@@H](CCCCN)C(=O)N[C@@H](CCCCN)C(=O)N[C@H](C(=O)N[C@@H](Cc1ccccc1)C(=O)N[C@@H](C(=O)N[C@H](Cc1ccccc1)C(=O)N[C@H](CCCCN)C(N)=O)C(C)C)C(C)C [M22-14, kkYIKKVFvfk--NH2] (H-[dK][dK]YIKKVF[dV][dF][dK]-NH2) | 3.11 (≈ 2.18 µM) | 3.13 (≈ 2.19 µM) |
| CC[C@H](C)[C@H](NC(=O)[C@@H](Cc1ccc(O)cc1)NC(=O)[C@@H](CCCCN)NC(=O)[C@H](N)CCCCN)C(=O)N[C@@H](CCCCN)C(=O)N[C@@H](CCCCN)C(=O)N[C@H](C(=O)N[C@@H](Cc1ccccc1)C(=O)N[C@@H](C(=O)N[C@H](Cc1ccccc1)C(=O)N[C@H](CCCCN)C(N)=O)C(C)C)C(C)C [M22-15, kkyIKKVFvfk--NH2] (H-[dK][dK][dY]IKKVF[dV][dF][dK]-NH2) | 3.12 (≈ 2.19 µM) | 3.12 (≈ 2.19 µM) |
| CC[C@H](C)[C@H](NC(=O)[C@H](Cc1ccc(O)cc1)NC(=O)[C@@H](CCCCN)NC(=O)[C@@H](N)CCCCN)C(=O)N[C@@H](CCCCN)C(=O)N[C@@H](CCCCN)C(=O)N[C@H](C(=O)N[C@@H](Cc1ccccc1)C(=O)N[C@H](C(=O)N[C@@H](Cc1ccccc1)C(=O)N[C@@H](CCCCN)C(N)=O)C(C)C)C(C)C [M22-16, KkYIKKVFVFK--NH2] (H-K[dK]YIKKVFVFK-NH2) | 3.16 (≈ 2.21 µM) | 3.15 (≈ 2.21 µM) |
| CC[C@H](C)[C@H](NC(=O)[C@@H](Cc1ccc(O)cc1)NC(=O)[C@H](CCCCN)NC(=O)[C@@H](N)CCCCN)C(=O)N[C@@H](CCCCN)C(=O)N[C@@H](CCCCN)C(=O)N[C@H](C(=O)N[C@@H](Cc1ccccc1)C(=O)N[C@H](C(=O)N[C@@H](Cc1ccccc1)C(=O)N[C@@H](CCCCN)C(N)=O)C(C)C)C(C)C [M22-17, KKyIKKVFVFK--NH2] (H-KK[dY]IKKVFVFK-NH2) | 3.12 (≈ 2.19 µM) | 3.15 (≈ 2.21 µM) |
| CC[C@@H](C)[C@@H](NC(=O)[C@H](Cc1ccc(O)cc1)NC(=O)[C@H](CCCCN)NC(=O)[C@@H](N)CCCCN)C(=O)N[C@@H](CCCCN)C(=O)N[C@@H](CCCCN)C(=O)N[C@H](C(=O)N[C@@H](Cc1ccccc1)C(=O)N[C@H](C(=O)N[C@@H](Cc1ccccc1)C(=O)N[C@@H](CCCCN)C(N)=O)C(C)C)C(C)C [M22-18, KKYiKKVFVFK--NH2] (H-KKY[dI]KKVFVFK-NH2) | 3.15 (≈ 2.21 µM) | 3.16 (≈ 2.21 µM) |
| CC[C@H](C)[C@H](NC(=O)[C@H](Cc1ccc(O)cc1)NC(=O)[C@H](CCCCN)NC(=O)[C@@H](N)CCCCN)C(=O)N[C@H](CCCCN)C(=O)N[C@@H](CCCCN)C(=O)N[C@H](C(=O)N[C@@H](Cc1ccccc1)C(=O)N[C@H](C(=O)N[C@@H](Cc1ccccc1)C(=O)N[C@@H](CCCCN)C(N)=O)C(C)C)C(C)C [M22-19, KKYIkKVFVFK--NH2] (H-KKYI[dK]KVFVFK-NH2) | 3.14 (≈ 2.2 µM) | 3.15 (≈ 2.21 µM) |
| CC[C@H](C)[C@H](NC(=O)[C@H](Cc1ccc(O)cc1)NC(=O)[C@H](CCCCN)NC(=O)[C@@H](N)CCCCN)C(=O)N[C@@H](CCCCN)C(=O)N[C@H](CCCCN)C(=O)N[C@H](C(=O)N[C@@H](Cc1ccccc1)C(=O)N[C@H](C(=O)N[C@@H](Cc1ccccc1)C(=O)N[C@@H](CCCCN)C(N)=O)C(C)C)C(C)C [M22-20, KKYIKkVFVFK--NH2] (H-KKYIK[dK]VFVFK-NH2) | 3.12 (≈ 2.19 µM) | 3.16 (≈ 2.21 µM) |
| CC[C@H](C)[C@H](NC(=O)[C@H](Cc1ccc(O)cc1)NC(=O)[C@H](CCCCN)NC(=O)[C@@H](N)CCCCN)C(=O)N[C@@H](CCCCN)C(=O)N[C@@H](CCCCN)C(=O)N[C@@H](C(=O)N[C@@H](Cc1ccccc1)C(=O)N[C@H](C(=O)N[C@@H](Cc1ccccc1)C(=O)N[C@@H](CCCCN)C(N)=O)C(C)C)C(C)C [M22-21, KKYIKKvFVFK--NH2] (H-KKYIKK[dV]FVFK-NH2) | 3.15 (≈ 2.21 µM) | 3.17 (≈ 2.22 µM) |
| CC[C@H](C)[C@H](NC(=O)[C@H](Cc1ccc(O)cc1)NC(=O)[C@H](CCCCN)NC(=O)[C@@H](N)CCCCN)C(=O)N[C@@H](CCCCN)C(=O)N[C@@H](CCCCN)C(=O)N[C@H](C(=O)N[C@H](Cc1ccccc1)C(=O)N[C@H](C(=O)N[C@@H](Cc1ccccc1)C(=O)N[C@@H](CCCCN)C(N)=O)C(C)C)C(C)C [M22-22, KKYIKKVfVFK--NH2] (H-KKYIKKV[dF]VFK-NH2) | 3.12 (≈ 2.19 µM) | 3.15 (≈ 2.21 µM) |
| CC[C@H](C)[C@H](NC(=O)[C@H](Cc1ccc(O)cc1)NC(=O)[C@H](CCCCN)NC(=O)[C@@H](N)CCCCN)C(=O)N[C@@H](CCCCN)C(=O)N[C@@H](CCCCN)C(=O)N[C@H](C(=O)N[C@@H](Cc1ccccc1)C(=O)N[C@@H](C(=O)N[C@@H](Cc1ccccc1)C(=O)N[C@@H](CCCCN)C(N)=O)C(C)C)C(C)C [M22-23, KKYIKKVFvFK--NH2] (H-KKYIKKVF[dV]FK-NH2) | 3.17 (≈ 2.22 µM) | 3.16 (≈ 2.21 µM) |
| CC[C@H](C)[C@H](NC(=O)[C@H](Cc1ccc(O)cc1)NC(=O)[C@H](CCCCN)NC(=O)[C@@H](N)CCCCN)C(=O)N[C@@H](CCCCN)C(=O)N[C@@H](CCCCN)C(=O)N[C@H](C(=O)N[C@@H](Cc1ccccc1)C(=O)N[C@H](C(=O)N[C@H](Cc1ccccc1)C(=O)N[C@@H](CCCCN)C(N)=O)C(C)C)C(C)C [M22-24, KKYIKKVFVfK--NH2] (H-KKYIKKVFV[dF]K-NH2) | 3.11 (≈ 2.18 µM) | 3.14 (≈ 2.2 µM) |
| CC[C@H](C)[C@H](NC(=O)[C@@H](Cc1ccc(O)cc1)NC(=O)[C@@H](CCCCN)NC(=O)[C@@H](N)CCCCN)C(=O)N[C@@H](CCCCN)C(=O)N[C@@H](CCCCN)C(=O)N[C@H](C(=O)N[C@@H](Cc1ccccc1)C(=O)N[C@H](C(=O)N[C@@H](Cc1ccccc1)C(=O)N[C@@H](CCCCN)C(N)=O)C(C)C)C(C)C [M22-25, KkyIKKVFVFK--NH2] (H-K[dK][dY]IKKVFVFK-NH2) | 3.12 (≈ 2.19 µM) | 3.15 (≈ 2.21 µM) |
| CC[C@H](C)[C@H](NC(=O)[C@H](Cc1ccc(O)cc1)NC(=O)[C@H](CCCCN)NC(=O)[C@@H](N)CCCCN)C(=O)N[C@H](CCCCN)C(=O)N[C@H](CCCCN)C(=O)N[C@H](C(=O)N[C@@H](Cc1ccccc1)C(=O)N[C@H](C(=O)N[C@@H](Cc1ccccc1)C(=O)N[C@@H](CCCCN)C(N)=O)C(C)C)C(C)C [M22-28, KKYIkkVFVFK--NH2] (H-KKYI[dK][dK]VFVFK-NH2) | 3.12 (≈ 2.19 µM) | 3.15 (≈ 2.21 µM) |
| CC[C@H](C)[C@H](NC(=O)[C@H](Cc1ccc(O)cc1)NC(=O)[C@H](CCCCN)NC(=O)[C@@H](N)CCCCN)C(=O)N[C@@H](CCCCN)C(=O)N[C@H](CCCCN)C(=O)N[C@@H](C(=O)N[C@@H](Cc1ccccc1)C(=O)N[C@H](C(=O)N[C@@H](Cc1ccccc1)C(=O)N[C@@H](CCCCN)C(N)=O)C(C)C)C(C)C [M22-29, KKYIKkvFVFK--NH2] (H-KKYIK[dK][dV]FVFK-NH2) | 3.11 (≈ 2.18 µM) | 3.15 (≈ 2.21 µM) |
| CC[C@H](C)[C@H](NC(=O)[C@H](Cc1ccc(O)cc1)NC(=O)[C@H](CCCCN)NC(=O)[C@@H](N)CCCCN)C(=O)N[C@@H](CCCCN)C(=O)N[C@@H](CCCCN)C(=O)N[C@@H](C(=O)N[C@H](Cc1ccccc1)C(=O)N[C@H](C(=O)N[C@@H](Cc1ccccc1)C(=O)N[C@@H](CCCCN)C(N)=O)C(C)C)C(C)C [M22-30, KKYIKKvfVFK--NH2] (H-KKYIKK[dV][dF]VFK-NH2) | 3.12 (≈ 2.19 µM) | 3.17 (≈ 2.22 µM) |
